# Experimental data: PubChem BioAssay AID1259284 (Sanger Institute, 2017)
# Purpose: 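siRNA screen across the kinome seeking partners for BYL719, cetuximab or trametinib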 (primary screen)
# System: SW48 human colorectal cancer cells
# Knock-down reagent: siRNA pool against human genes
# Conditions: anchor drug BYL719 at 1 µM, cetuximab at 5 µg/ml or trametinib at 10 nM, or DMSO vehicle alone
# Measurement: 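Cell viability relative to non-targeting pool wells, replicate mean, with robust z-scores and drug synergy scores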
# Scale: robust z-score, no drug: higher = more cells survive knock-down
# Active means: 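a knock-down is essential if viability without drug gives a robust z-score under -3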
# Calls: active = essential without drug; inactive = no change without drug
# In all, the deposit lists 794 reagents; shown is a random part of them. 16 of them (2%) were called active. 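Calls concern knock-down without drug only; drug synergy was judged apart, with scores above 0.15 taken as synergy.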 Not all columns of the deposit are shown. The record does not give: the amount of reagent, the time to read-out.
gene symbol,"robust z-score, no drug",activity call
PRKCQ,0.426,inactive
PIK3C2A,-1.2,inactive
BMPR1A,0.426,inactive
RPS6KA6,0.426,inactive
RFK,0.426,inactive
MAP3K9,-1.49,inactive
CHKB,0.426,inactive
BMPR1B,0.426,inactive
DCLK3,0.135,inactive
DCK,0.275,inactive
TESK2,0.426,inactive
UCK1,0.426,inactive

Sorted by “robust z-score, no drug” (ascending): 3 of the entries above.
gene symbol,"robust z-score, no drug",activity call
MAP3K9,-1.49,inactive
RFK,0.426,inactive
CHKB,0.426,inactive

Additional results follow:
gene symbol,"robust z-score, no drug",activity call
MARK1,0.121,inactive
MYLK2,-1.48,inactive
PRKD1,0.426,inactive
MAP3K8,0.426,inactive
RPS6KA1,-0.401,inactive
RSKR,0.426,inactive
KRAS,0.426,inactive
MUSK,-0.955,inactive
